Measurements reported in paper doi:10.1101/2025.07.23.666382.
No constants are given. Whether binding was seen depends on the method and setting. Binding seen in cells or lysates may run through a third protein. Some results given as binding are weak or reduced against the parent protein; the word gives no strength.

Sequences of proteins named here, by UniProt entry; tags and fusion partners are left off. Residues count along the entry.
UniProt Q3UVX5, residues 19-1203: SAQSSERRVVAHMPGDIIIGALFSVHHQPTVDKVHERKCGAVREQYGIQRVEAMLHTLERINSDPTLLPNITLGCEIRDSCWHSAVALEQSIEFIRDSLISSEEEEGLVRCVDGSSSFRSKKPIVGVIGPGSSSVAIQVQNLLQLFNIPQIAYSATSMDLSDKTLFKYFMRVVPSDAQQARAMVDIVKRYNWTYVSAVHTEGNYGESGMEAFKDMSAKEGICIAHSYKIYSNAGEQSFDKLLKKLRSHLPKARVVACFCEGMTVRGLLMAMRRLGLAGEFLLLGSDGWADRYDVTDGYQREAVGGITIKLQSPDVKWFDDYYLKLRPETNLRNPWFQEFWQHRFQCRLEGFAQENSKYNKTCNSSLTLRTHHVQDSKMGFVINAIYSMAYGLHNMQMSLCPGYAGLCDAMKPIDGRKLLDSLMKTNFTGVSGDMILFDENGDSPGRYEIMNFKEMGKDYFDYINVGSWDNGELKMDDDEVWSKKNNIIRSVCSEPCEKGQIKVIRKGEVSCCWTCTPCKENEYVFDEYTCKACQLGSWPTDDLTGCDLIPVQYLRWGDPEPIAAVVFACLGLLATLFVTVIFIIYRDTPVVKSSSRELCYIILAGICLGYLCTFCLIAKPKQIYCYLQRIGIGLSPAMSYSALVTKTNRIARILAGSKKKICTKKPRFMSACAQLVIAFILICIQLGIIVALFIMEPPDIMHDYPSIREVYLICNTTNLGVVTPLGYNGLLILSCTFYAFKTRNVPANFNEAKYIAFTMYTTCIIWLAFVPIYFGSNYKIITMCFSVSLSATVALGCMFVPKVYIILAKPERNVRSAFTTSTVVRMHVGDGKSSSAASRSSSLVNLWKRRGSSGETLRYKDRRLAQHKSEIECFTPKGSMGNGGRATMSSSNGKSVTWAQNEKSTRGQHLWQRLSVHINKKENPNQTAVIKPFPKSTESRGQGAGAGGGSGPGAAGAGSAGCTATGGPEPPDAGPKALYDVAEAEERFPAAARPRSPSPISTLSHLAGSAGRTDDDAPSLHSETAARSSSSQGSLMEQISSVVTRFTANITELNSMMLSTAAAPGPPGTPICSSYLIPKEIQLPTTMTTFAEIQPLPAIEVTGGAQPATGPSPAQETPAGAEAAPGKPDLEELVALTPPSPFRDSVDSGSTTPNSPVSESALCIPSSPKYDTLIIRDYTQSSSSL
UniProt Q4ACU6: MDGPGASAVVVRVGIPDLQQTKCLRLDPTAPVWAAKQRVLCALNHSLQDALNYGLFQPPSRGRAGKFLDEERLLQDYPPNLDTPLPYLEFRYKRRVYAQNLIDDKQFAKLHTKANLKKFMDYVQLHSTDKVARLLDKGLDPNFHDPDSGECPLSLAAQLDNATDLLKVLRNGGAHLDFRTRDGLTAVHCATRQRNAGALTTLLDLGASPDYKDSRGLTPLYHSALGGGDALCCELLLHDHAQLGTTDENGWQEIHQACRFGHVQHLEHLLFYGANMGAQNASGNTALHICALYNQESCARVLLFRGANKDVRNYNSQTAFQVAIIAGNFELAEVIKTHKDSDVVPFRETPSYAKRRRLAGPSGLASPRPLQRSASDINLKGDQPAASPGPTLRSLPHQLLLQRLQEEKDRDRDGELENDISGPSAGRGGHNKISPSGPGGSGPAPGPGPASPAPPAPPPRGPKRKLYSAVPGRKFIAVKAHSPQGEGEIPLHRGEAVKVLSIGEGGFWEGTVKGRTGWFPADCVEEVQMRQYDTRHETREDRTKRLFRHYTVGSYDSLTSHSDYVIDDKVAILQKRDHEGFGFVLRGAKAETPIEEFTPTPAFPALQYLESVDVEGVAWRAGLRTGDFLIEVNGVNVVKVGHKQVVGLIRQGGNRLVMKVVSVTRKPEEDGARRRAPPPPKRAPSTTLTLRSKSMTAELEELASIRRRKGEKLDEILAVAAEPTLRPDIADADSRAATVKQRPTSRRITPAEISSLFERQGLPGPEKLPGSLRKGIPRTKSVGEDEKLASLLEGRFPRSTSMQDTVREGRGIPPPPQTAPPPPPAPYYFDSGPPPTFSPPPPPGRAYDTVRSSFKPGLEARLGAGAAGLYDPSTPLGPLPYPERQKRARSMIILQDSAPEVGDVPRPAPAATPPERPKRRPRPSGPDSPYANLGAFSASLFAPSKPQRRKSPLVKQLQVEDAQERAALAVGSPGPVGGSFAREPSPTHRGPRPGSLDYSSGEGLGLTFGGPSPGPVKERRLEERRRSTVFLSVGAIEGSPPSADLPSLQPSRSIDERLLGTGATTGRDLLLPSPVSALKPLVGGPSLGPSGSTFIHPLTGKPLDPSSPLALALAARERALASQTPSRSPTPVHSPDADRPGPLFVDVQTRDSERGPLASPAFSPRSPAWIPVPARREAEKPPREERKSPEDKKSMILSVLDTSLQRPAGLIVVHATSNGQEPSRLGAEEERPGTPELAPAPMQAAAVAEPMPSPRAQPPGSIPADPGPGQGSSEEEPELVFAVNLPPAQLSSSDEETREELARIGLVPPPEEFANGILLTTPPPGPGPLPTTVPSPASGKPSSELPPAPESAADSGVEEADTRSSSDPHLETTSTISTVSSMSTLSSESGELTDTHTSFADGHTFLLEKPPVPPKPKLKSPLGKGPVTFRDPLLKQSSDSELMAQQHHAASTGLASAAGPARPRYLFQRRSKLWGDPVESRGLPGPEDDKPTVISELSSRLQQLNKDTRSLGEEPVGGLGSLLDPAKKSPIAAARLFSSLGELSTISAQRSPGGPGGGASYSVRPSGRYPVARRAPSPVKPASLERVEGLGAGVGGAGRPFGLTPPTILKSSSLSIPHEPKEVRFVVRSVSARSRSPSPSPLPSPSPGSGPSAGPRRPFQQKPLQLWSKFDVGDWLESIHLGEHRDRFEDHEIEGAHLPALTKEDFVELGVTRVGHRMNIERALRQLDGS

Molecular target: metabotropic glutamate 5 (mGlu5) receptor (mouse (endogenous in primary cortical neurons)) (UniProt Q3UVX5)
Assay: proximity ligation

binding: binds
Substance: SH3 And Multiple Ankyrin Repeat Domains 3 (Shank3) (from UniProt Q4ACU6 1-1730)
